# PMC4577213
# Protein sequences, listed by entry. Tags and fused reporters are not part of them. Lines headed by an entry give the natural chain unless they say otherwise; changes in a name come on top.
# UniProt Q94517: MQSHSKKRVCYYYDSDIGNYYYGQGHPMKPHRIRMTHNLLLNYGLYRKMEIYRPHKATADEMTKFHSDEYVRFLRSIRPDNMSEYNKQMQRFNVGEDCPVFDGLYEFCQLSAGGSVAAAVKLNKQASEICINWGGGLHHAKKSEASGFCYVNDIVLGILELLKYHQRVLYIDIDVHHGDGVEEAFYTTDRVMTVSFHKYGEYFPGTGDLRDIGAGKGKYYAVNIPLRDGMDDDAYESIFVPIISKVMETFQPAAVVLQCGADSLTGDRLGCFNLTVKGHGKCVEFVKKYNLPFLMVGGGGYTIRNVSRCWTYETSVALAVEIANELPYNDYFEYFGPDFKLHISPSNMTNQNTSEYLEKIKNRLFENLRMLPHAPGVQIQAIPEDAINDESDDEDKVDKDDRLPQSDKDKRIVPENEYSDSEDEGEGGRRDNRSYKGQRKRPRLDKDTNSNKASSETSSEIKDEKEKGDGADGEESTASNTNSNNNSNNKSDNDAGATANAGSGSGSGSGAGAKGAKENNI
# UniProt P45975: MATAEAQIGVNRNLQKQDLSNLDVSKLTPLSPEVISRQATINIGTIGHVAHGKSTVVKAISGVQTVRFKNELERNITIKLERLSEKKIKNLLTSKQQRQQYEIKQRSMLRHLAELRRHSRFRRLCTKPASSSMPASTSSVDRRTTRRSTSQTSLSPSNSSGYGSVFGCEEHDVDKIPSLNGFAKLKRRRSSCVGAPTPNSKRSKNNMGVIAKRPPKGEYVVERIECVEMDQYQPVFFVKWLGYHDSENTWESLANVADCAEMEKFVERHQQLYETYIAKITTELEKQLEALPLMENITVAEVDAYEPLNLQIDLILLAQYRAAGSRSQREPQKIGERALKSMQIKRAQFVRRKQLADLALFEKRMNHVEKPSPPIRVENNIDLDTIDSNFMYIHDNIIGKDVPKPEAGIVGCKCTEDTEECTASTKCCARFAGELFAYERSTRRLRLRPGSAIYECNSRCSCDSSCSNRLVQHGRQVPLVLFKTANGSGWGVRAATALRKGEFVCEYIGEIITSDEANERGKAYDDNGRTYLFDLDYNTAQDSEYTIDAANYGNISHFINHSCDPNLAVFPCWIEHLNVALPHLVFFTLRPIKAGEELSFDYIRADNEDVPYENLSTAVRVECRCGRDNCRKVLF
# UniProt Q9V460: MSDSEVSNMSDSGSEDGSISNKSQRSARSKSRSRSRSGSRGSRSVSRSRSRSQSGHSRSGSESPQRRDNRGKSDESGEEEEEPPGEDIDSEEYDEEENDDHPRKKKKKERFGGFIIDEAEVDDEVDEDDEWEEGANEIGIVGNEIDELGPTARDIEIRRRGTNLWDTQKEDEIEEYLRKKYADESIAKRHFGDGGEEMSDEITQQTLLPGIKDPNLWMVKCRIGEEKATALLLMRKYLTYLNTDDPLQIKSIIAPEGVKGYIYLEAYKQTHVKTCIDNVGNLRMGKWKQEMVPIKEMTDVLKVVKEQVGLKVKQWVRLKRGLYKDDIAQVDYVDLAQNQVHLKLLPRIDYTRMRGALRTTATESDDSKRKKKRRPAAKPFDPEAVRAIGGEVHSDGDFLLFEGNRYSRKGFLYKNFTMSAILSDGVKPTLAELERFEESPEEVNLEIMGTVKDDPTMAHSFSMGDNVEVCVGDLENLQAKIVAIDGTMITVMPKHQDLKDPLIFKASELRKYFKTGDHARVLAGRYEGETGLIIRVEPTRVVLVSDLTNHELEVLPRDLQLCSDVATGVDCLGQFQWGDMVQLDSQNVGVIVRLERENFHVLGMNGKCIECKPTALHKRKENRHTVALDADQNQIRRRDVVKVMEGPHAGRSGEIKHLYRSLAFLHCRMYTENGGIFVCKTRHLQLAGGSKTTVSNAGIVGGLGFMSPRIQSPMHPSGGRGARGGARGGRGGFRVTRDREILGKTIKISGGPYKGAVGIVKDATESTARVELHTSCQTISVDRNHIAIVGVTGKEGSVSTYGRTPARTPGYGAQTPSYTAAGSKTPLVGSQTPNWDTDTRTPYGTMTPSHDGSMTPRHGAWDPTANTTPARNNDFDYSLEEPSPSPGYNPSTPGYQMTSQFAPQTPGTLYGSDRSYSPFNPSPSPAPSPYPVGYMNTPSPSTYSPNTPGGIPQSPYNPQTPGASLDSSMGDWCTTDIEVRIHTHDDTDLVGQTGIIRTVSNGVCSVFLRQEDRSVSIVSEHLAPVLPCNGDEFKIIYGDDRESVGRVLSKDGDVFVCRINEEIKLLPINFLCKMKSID
# UniProt Q9W420: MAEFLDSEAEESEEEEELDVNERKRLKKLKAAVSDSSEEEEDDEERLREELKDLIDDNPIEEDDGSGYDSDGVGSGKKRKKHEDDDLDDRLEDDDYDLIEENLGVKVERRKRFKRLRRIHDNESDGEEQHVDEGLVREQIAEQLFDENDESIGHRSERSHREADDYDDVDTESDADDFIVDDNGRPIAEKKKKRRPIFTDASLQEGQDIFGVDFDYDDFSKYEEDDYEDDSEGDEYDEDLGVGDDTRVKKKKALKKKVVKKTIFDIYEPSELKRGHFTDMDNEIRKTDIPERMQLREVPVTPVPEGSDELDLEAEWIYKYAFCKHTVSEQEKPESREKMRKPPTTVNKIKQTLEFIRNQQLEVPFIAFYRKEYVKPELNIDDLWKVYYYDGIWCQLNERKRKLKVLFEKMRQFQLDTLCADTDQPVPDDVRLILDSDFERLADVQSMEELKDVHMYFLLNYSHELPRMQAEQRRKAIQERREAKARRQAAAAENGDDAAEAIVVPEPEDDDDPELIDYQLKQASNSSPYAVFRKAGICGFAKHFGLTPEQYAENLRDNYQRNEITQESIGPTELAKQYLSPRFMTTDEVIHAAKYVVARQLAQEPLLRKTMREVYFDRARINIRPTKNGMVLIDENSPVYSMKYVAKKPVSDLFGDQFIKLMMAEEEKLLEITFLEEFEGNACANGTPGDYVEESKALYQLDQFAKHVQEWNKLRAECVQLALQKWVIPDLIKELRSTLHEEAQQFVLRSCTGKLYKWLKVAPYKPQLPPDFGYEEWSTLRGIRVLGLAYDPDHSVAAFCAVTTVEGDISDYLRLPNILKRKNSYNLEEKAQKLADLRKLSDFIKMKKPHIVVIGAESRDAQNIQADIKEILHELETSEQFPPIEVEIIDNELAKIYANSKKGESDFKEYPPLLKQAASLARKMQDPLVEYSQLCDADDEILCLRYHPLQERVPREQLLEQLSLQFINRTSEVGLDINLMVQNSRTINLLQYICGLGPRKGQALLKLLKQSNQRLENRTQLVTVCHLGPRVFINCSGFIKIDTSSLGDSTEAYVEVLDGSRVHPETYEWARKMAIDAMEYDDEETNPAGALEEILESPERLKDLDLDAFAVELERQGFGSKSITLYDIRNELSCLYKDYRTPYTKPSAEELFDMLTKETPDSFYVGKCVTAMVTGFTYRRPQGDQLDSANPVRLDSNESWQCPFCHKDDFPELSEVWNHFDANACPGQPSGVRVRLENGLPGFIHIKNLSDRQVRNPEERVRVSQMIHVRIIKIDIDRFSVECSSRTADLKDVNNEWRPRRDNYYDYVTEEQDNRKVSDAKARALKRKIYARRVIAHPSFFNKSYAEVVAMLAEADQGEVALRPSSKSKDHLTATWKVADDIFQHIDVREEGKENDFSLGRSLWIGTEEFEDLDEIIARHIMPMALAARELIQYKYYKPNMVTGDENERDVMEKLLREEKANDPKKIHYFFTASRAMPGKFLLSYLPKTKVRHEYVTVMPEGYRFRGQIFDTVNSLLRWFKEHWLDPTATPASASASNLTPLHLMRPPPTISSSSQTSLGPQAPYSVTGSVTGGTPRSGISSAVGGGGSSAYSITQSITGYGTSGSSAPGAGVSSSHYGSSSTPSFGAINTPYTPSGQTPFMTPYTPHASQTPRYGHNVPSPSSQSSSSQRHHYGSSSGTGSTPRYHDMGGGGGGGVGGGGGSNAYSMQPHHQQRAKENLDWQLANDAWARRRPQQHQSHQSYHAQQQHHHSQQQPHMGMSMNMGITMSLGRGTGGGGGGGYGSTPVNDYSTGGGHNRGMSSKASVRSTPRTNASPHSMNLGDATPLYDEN
# Results are given in words; binding and its absence hold for the method and conditions named. In cells and extracts the contact can be indirect. These calls come from enrichment with a bait or labelling near it, and not all partners need be listed. Tags and fused reporters may be left off the sequences shown.
# Biological target: T1, V5-tagged RRP6 (D. melanogaster) (UniProt Q9VFF3)
# T1 sequence: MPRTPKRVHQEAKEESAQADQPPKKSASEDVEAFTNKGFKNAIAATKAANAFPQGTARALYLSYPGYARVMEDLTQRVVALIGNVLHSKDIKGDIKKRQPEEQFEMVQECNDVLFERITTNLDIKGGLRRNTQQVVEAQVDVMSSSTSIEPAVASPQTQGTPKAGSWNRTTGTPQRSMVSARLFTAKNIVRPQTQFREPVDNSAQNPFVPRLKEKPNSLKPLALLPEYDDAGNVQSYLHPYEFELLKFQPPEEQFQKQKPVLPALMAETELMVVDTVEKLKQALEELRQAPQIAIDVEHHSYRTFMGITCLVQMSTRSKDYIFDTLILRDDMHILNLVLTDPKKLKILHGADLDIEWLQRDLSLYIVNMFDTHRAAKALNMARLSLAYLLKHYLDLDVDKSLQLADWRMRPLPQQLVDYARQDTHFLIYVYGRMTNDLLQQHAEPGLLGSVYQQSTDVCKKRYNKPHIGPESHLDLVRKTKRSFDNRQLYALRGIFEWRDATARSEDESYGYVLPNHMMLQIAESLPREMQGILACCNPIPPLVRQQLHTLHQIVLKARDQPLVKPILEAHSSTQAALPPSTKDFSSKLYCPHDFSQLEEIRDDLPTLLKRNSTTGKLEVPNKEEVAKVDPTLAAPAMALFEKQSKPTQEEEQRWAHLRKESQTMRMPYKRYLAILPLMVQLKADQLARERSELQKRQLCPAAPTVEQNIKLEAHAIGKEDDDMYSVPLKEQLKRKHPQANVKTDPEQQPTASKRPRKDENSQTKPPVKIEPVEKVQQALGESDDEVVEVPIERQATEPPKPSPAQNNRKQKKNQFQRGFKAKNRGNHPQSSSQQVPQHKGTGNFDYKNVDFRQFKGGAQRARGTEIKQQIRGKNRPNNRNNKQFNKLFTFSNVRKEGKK
# Experiment: affinity purification with mass spectrometry; anti-V5 immunoprecipitation from RNase A-digested nuclear extracts of S2 cells expressing RRP6-V5, LC/MS-MS; 'empty' S2 cells as negative control; FDR 0.01, minimum fold-difference 2
row,binding,Substance
1,binds,RPD3 (from UniProt Q94517 1-521) (enzyme)
2,binds,SU(VAR)3-9 (from UniProt P45975 1-635) (enzyme)
3,binds,transcription elongation factor SPT5 (from UniProt Q9V460 1-1078)
4,binds,transcription elongation factor SPT6 (from UniProt Q9W420 1-1831)
